According to patent publication US4667019A, “Azo dyes containing a triazolyl group for use in liquid crystalline materials” (Kernforschungszentrum Karlsruhe GmbH, priority 1986, dated 1987):

test: light-stability, high-speed exposure of the measuring cell in a Suntest; assay type: physicochemical; details: before exposure, 25° C
Experimental: The light-stability was determined by high-speed exposure of the measuring cell in a Suntest from Hanau, at 25° C. In this procedure, the decrease in E^.parallel. was measured. The initial extinction E^.parallel. and the exposure time E^.parallel.80% after which E^.parallel. has decreased to 80% are shown in Table 2 for Examples 5, 8, 9, 10, 11, 12, 13, 14 and 15. The percentage change in E^.parallel.0 is plotted against the exposure time in FIGS. 2, 3 and 4 for Examples 8, 11 and 15.

Question: Which “initial extinction E∥ (Eo ")” value does the source give for CCCCc1ccc2nn(-c3ccc(N=Nc4ccc(N=Nc5ccc(N(C)C)cc5)cc4C)cc3C)nc2c1 [Example 15] here?
Answer: 1,25

Question: Which “initial extinction E∥ (Eo ")” value does the source give for CCOC(=O)c1nn(-c2ccc(N=Nc3ccc(N=Nc4ccc(N(C)C)cc4)c4ccccc34)cc2)nc1C [Example 8] here?
Answer: 1,16

Question: With Cc1ccc2nn(-c3cc(C)c(N=Nc4cc(C)c(N=Nc5ccc(N(C)C)cc5)cc4C)cc3C)nc2c1 [Example 9] as the compound, how does the “initial extinction E∥ (Eo ")” value read?
Answer: 1,47

Question: With CCCCc1ccc2nn(-c3ccc(N=Nc4cc(C)c(N=Nc5ccc(N(C)C)cc5)cc4C)cc3C)nc2c1 [Example 14] as the compound, how does the “initial extinction E∥ (Eo ")” value read?
Answer: 1,57

Question: For Cc1ccc2nn(-c3ccc(N=Nc4ccc(N=Nc5ccc(N)cc5C)cc4C)cc3C)nc2c1 [Example 11], which “initial extinction E∥ (Eo ")” value is on record?
Answer: 1,63

Question: For CCCCN(CCCC)c1ccc(N=Nc2ccc(N=Nc3ccc(-n4nc5ccc(C)cc5n4)c(C)c3)c(C)c2)cc1 [Example 13], which “initial extinction E∥ (Eo ")” value is on record?
Answer: 1,80

Question: With CCOC(=O)c1nn(-c2ccc(N=Nc3cc(C)c(N=Nc4ccc(N(C)C)cc4)cc3C)cc2)nc1C [Example 5] as the compound, how does the “initial extinction E∥ (Eo ")” value read?
Answer: 1,39

Question: Which “initial extinction E∥ (Eo ")” value does the source give for Cc1ccc2nn(-c3ccc(N=Nc4cc(C)c(N=Nc5ccc(N(C)C)cc5)cc4C)cc3)nc2c1 [Example 10] here?
Answer: 1,88
